The target in this assay is GST-syntaxin-4 (1-273) (UniProt Q08850). The assay can be described thus: pull-down; 10 µg GST or GST-syntaxin on Glutathione-Sepharose 4B beads, with 1 mg HEK293T lysate overexpressing tomosyn-1 or a tomosyn-2 isoform, 1% Triton lysis buffer, 2 h at 4°C, three washes; anti-myc blot; only the target purified.

Chains of the proteins cited; added tags and fusions are not shown. Residues count along the entry.
UniProt Q08850, residues 1-273: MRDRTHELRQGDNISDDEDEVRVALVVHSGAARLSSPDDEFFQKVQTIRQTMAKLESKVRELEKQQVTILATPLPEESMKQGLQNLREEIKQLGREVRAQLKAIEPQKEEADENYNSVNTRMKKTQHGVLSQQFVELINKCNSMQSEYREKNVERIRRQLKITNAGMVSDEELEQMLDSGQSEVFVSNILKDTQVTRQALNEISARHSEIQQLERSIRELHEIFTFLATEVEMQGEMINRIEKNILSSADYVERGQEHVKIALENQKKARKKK

Results are given in words; binding and its absence hold for the method and conditions named. In cells and extracts the contact can be indirect. Some results given as binding are weak or reduced against the parent protein; the word gives no strength. Where a sequence is shown, tags or fusion partners need not be part of it.

B1: xb-tomosyn-2-myc (protein, UniProt Q5DQR4 1-1185)
chain: MKKFNFRKVLDGLTASSPGSGSSSGSNSGGAGSGSVHPGGTAGLPREEIQESLTSDYFQICKTVRHGFPYQPTALAFDPVQKILAIGTRTGAIRILGRPGVDCYCQHESGAAVLQLQFLINEGALVSASSDDTLHLWNLRQKRPAILHSLKFNRERITYCHLPFQSKWLYVGTERGNTHIVNIESFILSGYVIMWNKAIELSTKTHPGPVVHLSDSPRDEGKLLIGYENGTVVFWDLKSKRAELRVYYDEAIHSIDWHHEGKQFMCSHSDGSLTLWNLKSPSRPFQTTVPHGKSQREGRKSESCKPILKVEYKTCRNSEPFIIFSGGLSYDKACRRPSLTIMHGKAITVLEMDHPIVEFLTLCETPYPNEFQEPYAVAVLLEKDLIVVDLTQTNFPIFENPYPMDIHESPVTCTAYFADCPPDLILVLYSIGVKHKKQGYSNKEWPVSGGAWNLGAQTYPEIIITGHADGTIKFWDASAMTLQMLYKLKTSKVFEKQKAGEGKQTCELVEEDPFAVQMIYWCPESRIFCVSGVSAYVIIYKFSRHEVTTEIVSLEVRLQCDVEDIITPEPETSPPFPDLSSQLPPSRSLSGSTNTVSSEGVTKDSIPCLSVKTRPVRMPPGYQADLVIQLVWVDGEPPQQITSLSISSAYGIVAFGNCTGLVVVDFIQKTVLLSMGTIDLYRSSDLYQRQPRSPRKNRQFIADNFCMRGLSNFYPDLTKRIRTSYQSLTELNDSPVPLELERCKSPTSDHVNGHCTSPTSQSCSSGKRLSSADVSKVNRWGPGRPPFRKAQSAACMEISLPVTTEETRENSYNRSRSSSISSIDKDSKEAITALYFMESFARKNDSTVSPCLFVGTSLGMVVLISLNLPSSDEQRFTEPVVVLPSGTFLSLKGAVLTFSCMDRTGSLMQPPYEVWRDPNNTDENEKTWKRKLVMNYSSSSQEMGDHQYTIICSEKQAKVFSLPSQTCLYVHNITETSFILQADVVVMCNSACLACFCANGHIMIMSLPSLRPMLDVNYLPLTDMRIARTFCFTNEGQALYLVSPTEIQRLTYSQEMCDNIQDMLGDLFTPIETPEAQNRGFLKGLFGGSGQTFDREELFGEASAGKASRSLAQHIPGPGSIEGMKGAAGGVMGELTRARIALDERGQRLGELEEKTAGMMTSAEAFSKHAHELMLKYKDKKWYQF
Turning to B1, the binding result is recorded as “binds”.

For the origin of these results see article PMC3188574.
